# Test results published in patent US20260266834A1, “Compositions And Methods For Detecting Proteins In Protein Corona” (Board of Trustees of Michigan State University, priority 2023, published 2026).
# Key:
# [1] = LC-MS/MS (DDA, label-free) analysis of protein corona formed on polystyrene NPs in human plasma spiked with small molecules
# [2] = PtdChos concentration series, LC-MS/MS of protein corona (120 minute gradient); design: species or system human
# [3] = LC-MS analysis of protein corona by data-independent acquisition (DIA); design: species or system human; conditions: 1000 μg/ml PtdChos
substance,measurement,setting,value
phosphatidylcholine [PtdChos],number of quantified proteins in protein corona,"[1]; 1000 μg/ml small molecule spiked into 55% human plasma, polystyrene NPs 0.2 mg/ml, DDA LC-MS/MS",897
same,fold of quantified proteins in plasma alone,"[1]; 1000 μg/ml small molecule, versus plasma alone (218 proteins)",4.1 fold
same,fold of quantified proteins in untreated corona,"[1]; 1000 μg/ml small molecule, versus untreated protein corona (681 proteins)",1.3 fold
same,"number of proteins quantified in protein corona, concentration series","[2]; PtdChos 1000 μg/ml, fresh samples, 120 minute gradient",957
same,effect of other PtdChos concentrations on number of quantified proteins,"[2]; series 100 to 10,000 μg/ml",neither lower concentration nor further addition of PtdChos enhanced the number of quantified proteins
same,fold increase of identified proteins over the untreated corona (DIA),[3],1.4 fold
same,number of proteins identified in protein corona (DIA),[3]; one replicate,1436
